This assay concerns E. coli O157:H7 BEI: BAA-1883. Description: MIC against a panel of Gram-positive and Gram-negative bacteria. The format is cell-based. As to conditions: Escherichia coli, BAA1883.

Each structure is given as a SMILES string.

A word on the MIC: it is the smallest concentration in the dilution series that meets the test's criterion for growth inhibition. Lower therefore signals inhibition by little substance. Consider `O=C(O)c1cn(C2CC2)c2cc(N3CCNCC3)c(F)cc2c1=O` [Cipro, Ciprofloxacin], for which the MIC is less than 1 µg/mL.

The record behind these values is patent US10125167B2, “Compositions and methods for treating MRSA infections and for sensitizing MRSA to beta-lactam antibiotics” (Arizona Board of Regents on behalf of Arizona State …, priority 2015, dated 2018).
